The name of at least one read-out is uncertain.
Assays:
Assay in all cases: Post-emergence weed control test (greenhouse, pot)
Format in all cases: in vivo
Details in all cases: 1200 g/ha, after 3 weeks, fresh weight inhibition rate
[1] = tested on: Descurainia sophia
[2] = tested on: Capsella bursa-pastoris
[3] = tested on: Sinapis arvensis

Row | SMILES | weed control effect, Descurainia sophia (activity level) [1] | weed control effect, Capsella bursa-pastoris (activity level) [2] | weed control effect, Sinapis arvensis (activity level) [3]
1 | Oc1c(-c2ccncc2)nnc(C(F)(F)F)c1C1CC1 [Compound 120] | 5 (Level 5: growth control rate is above 85%) | 5 (Level 5: growth control rate is above 85%) | 5 (Level 5: growth control rate is above 85%)
2 | Oc1c(-c2cnn(C(F)F)c2)nnc(C(F)(F)F)c1C(F)F [Compound 388] | 4 (Level 4: growth control rate is greater than or equal to 60% and less than 85%) | 3 (Level 3: growth control rate is greater than or equal to 40% and less than 60%) | 5 (Level 5: growth control rate is above 85%)
3 | C=C(C)c1c(C(F)(F)F)nnc(-c2cccnc2F)c1O [Compound 173] | 5 (Level 5: growth control rate is above 85%) | 5 (Level 5: growth control rate is above 85%) | 5 (Level 5: growth control rate is above 85%)
4 | Oc1c(-c2ccc(Cl)nc2)nnc(C(F)(F)F)c1C1CC1 [Compound 125] | 5 (Level 5: growth control rate is above 85%) | 5 (Level 5: growth control rate is above 85%) | 5 (Level 5: growth control rate is above 85%)
5 | Cc1c(C(F)(F)F)nnc(-c2ccnc(F)c2)c1O [Compound 99] | 5 (Level 5: growth control rate is above 85%) | 5 (Level 5: growth control rate is above 85%) | 5 (Level 5: growth control rate is above 85%)
6 | C=C(C)c1c(C(F)(F)F)nnc(-c2cncc(F)c2)c1O [Compound 163] | 5 (Level 5: growth control rate is above 85%) | 5 (Level 5: growth control rate is above 85%) | 5 (Level 5: growth control rate is above 85%)
7 | N#Cc1ccc(-c2nnc(C(F)(F)F)c(N)c2O)cc1 [Compound 16] | 4 (Level 4: growth control rate is greater than or equal to 60% and less than 85%) | 4 (Level 4: growth control rate is greater than or equal to 60% and less than 85%) | 4 (Level 4: growth control rate is greater than or equal to 60% and less than 85%)
8 | Oc1c(-c2ccnc(Cl)c2)nnc(C(F)(F)F)c1C1CC1 [Compound 133] | 5 (Level 5: growth control rate is above 85%) | 5 (Level 5: growth control rate is above 85%) | 5 (Level 5: growth control rate is above 85%)
9 | N#Cc1ccc(-c2nnc(C(F)(F)F)c(C3CC3)c2O)cn1 [Compound 123] | 5 (Level 5: growth control rate is above 85%) | 5 (Level 5: growth control rate is above 85%) | 5 (Level 5: growth control rate is above 85%)
10 | Cc1c(C(F)(F)F)nnc(-c2ccc(Br)nc2)c1O [Compound 97] | 5 (Level 5: growth control rate is above 85%) | 5 (Level 5: growth control rate is above 85%) | 5 (Level 5: growth control rate is above 85%)
11 | C=Cc1c(C(F)(F)F)nnc(-c2cnn(C(F)F)c2)c1O [Compound 52] | 3 (Level 3: growth control rate is greater than or equal to 40% and less than 60%) | 3 (Level 3: growth control rate is greater than or equal to 40% and less than 60%) | 5 (Level 5: growth control rate is above 85%)
12 | Oc1c(-c2ccc(Cl)cc2C(F)(F)F)nnc(C(F)(F)F)c1C1CC1 [Compound 404] | 5 (Level 5: growth control rate is above 85%) | 5 (Level 5: growth control rate is above 85%) | 5 (Level 5: growth control rate is above 85%)
13 | CCc1c(C(F)(F)F)nnc(-c2ccc(C#N)cc2)c1O [Compound 6] | 5 (Level 5: growth control rate is above 85%) | 5 (Level 5: growth control rate is above 85%) | 5 (Level 5: growth control rate is above 85%)
14 | Cc1c(C(F)(F)F)nnc(-c2ccc(F)cc2Cl)c1O [Compound 301] | 5 (Level 5: growth control rate is above 85%) | 3 (Level 3: growth control rate is greater than or equal to 40% and less than 60%) | 5 (Level 5: growth control rate is above 85%)
15 | Oc1c(-c2ccc(F)nc2F)nnc(C(F)(F)F)c1C1CC1 [Compound 121] | 5 (Level 5: growth control rate is above 85%) | 5 (Level 5: growth control rate is above 85%) | 5 (Level 5: growth control rate is above 85%)
16 | CCc1c(C(F)(F)F)nnc(-c2cnn(C(F)F)c2)c1O [Compound 49] | 5 (Level 5: growth control rate is above 85%) | 5 (Level 5: growth control rate is above 85%) | 5 (Level 5: growth control rate is above 85%)
17 | Oc1c(-c2cncc(F)c2)nnc(C(F)(F)F)c1C1CC1 [Compound 122] | 5 (Level 5: growth control rate is above 85%) | 5 (Level 5: growth control rate is above 85%) | 5 (Level 5: growth control rate is above 85%)
18 | Oc1c(-c2cncc(Cl)c2)nnc(C(F)(F)F)c1C1CC1 [Compound 134] | 5 (Level 5: growth control rate is above 85%) | 5 (Level 5: growth control rate is above 85%) | 5 (Level 5: growth control rate is above 85%)
19 | C=C(C)c1c(C(F)(F)F)nnc(-c2ccncc2)c1O [Compound 161] | 5 (Level 5: growth control rate is above 85%) | 5 (Level 5: growth control rate is above 85%) | 5 (Level 5: growth control rate is above 85%)
20 | Oc1c(-c2cnn(C(F)F)c2)nnc(C(F)(F)F)c1C1CC1 [Compound 50] | 5 (Level 5: growth control rate is above 85%) | 5 (Level 5: growth control rate is above 85%) | 5 (Level 5: growth control rate is above 85%)
21 | Cc1c(C(F)(F)F)nnc(-c2ccc(C#N)nc2)c1O [Compound 96] | 5 (Level 5: growth control rate is above 85%) | 5 (Level 5: growth control rate is above 85%) | 5 (Level 5: growth control rate is above 85%)

Reference: patent US12356990B2, “Pyridazinol compound, derivative thereof, preparation method therefor, herbicidal composition and use thereof” (QINGDAO KINGAGROOT CHEMICAL COMPOUND CO., LTD., priority 2019, dated 2025)
